US20180194861A1
These are yes or no findings as the source states them, for the method shown. Some entries that bind do so weakly or less than the wild type. Values belong to the binder of their own block, whether it stands above or below them.

Chains of the proteins cited; added tags and fusions are not shown. Residues count along the entry.
UniProt Q04609: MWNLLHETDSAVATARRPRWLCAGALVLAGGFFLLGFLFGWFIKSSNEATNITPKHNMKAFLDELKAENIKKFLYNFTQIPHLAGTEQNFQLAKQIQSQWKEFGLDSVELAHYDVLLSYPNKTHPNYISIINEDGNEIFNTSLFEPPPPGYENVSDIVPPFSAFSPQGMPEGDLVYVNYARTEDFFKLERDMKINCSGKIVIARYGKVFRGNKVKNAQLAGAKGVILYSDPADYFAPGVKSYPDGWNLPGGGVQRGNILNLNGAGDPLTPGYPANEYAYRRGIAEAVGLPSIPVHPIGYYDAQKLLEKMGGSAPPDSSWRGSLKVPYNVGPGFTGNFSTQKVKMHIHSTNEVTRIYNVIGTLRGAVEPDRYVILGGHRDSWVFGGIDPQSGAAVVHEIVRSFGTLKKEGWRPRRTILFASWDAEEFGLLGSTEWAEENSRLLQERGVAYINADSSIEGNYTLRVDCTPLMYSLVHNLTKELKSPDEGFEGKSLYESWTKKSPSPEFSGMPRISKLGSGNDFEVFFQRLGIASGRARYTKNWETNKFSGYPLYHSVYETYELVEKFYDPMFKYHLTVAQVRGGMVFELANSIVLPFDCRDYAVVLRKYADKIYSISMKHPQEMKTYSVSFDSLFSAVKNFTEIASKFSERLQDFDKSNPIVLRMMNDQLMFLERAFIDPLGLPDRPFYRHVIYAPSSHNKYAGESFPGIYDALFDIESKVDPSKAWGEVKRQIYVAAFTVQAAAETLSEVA
UniProt Q9UHE8: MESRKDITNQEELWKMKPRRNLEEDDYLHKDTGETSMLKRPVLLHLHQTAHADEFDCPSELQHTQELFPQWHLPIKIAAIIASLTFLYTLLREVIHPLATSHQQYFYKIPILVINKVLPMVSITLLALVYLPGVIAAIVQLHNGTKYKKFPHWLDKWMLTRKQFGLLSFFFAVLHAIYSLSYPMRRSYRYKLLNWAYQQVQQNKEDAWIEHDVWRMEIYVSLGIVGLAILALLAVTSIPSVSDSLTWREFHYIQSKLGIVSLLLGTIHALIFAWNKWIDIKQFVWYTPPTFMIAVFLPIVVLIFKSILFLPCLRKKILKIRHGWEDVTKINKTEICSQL
UniProt P07766, residues 23-207: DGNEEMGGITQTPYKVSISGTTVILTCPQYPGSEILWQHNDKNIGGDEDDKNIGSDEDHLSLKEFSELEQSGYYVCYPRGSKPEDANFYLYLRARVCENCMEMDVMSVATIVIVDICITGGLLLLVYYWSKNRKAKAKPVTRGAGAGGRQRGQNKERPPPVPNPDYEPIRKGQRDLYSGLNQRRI

Assays:
[1] = target: PSMA on 293/PSMA cells and LnCap cells (UniProt Q04609); test: FACS on 293/PSMA cells
[2] = target: STEAP1 on 293/STEAP1 cells and LnCap cells (UniProt Q9UHE8); test: FACS on 293/STEAP1 cells
[3] = target: CD3 on Jurkat cells (UniProt P07766); test: FACS on Jurkat cells

B3: AB596-MH2n/p (antibody, V domains shown)
VH: EVTLKESGPVLVKPTETLTLTCTVSGFSLTSFGVSWVRQPPGKGLEWIAAIWNSGRMDYNSALKSRLTISRDTSKSQVVLTMTNMDPVDTAMYFCARSGGSHWGQGTLVTVSS
VL: DIQMTQSPSSLSASVGDRVTITCKPSQNIDKYLNWYQQKPGKAPKRLIYNTNNLQTGIPSRFSGSGSGTEYTLTISSLQPEDFATYFCLQHRSGWTFGGGTKVEIKR
binding [3]: binds

B4: AB596 (parental anti-CD3 antibody) (antibody, V domains shown)
VH: B3 VH
VL: DIQMTQSPSSLSASVGDRVTITCKPSQNIDKYLNWYQQKPGKAPKRLIYNTNNLQTGIPSRFSGSGSGTEYTLTISSLQPEDFATYFCLQHRSGWTFGGGTKVEIK
binding [3]: binds

Second part, the binder after the results:

binding [1]: binds
B1: hPSMA17.1 (parental anti-PSMA antibody) (antibody, V domains shown)
VH: EVQLVQSGAEVKKPGSSVKVSCKASGYTFTDYYMNWVKQAPGKGLEWIGLINPNSGGINYNQKFKVKATLTVDKSTSTAYMELSSLRSEDTAVYYCARRDYGTSGDYWGQGTTVTVSS
VL: DIQMTQSPSSLSASVGDRVTITCHASQNINVWLSWYQQKPGKAPKLLIYKASNLHTGVPSRFSGSGSGTDFTLTISSLQPEDFATYYCQQGQSYPLTFGQGTKLEIK

binding [2]: binds
B2: TPP3956 (parental anti-STEAP1 antibody) (antibody, V domains shown)
VH: EVQLVESGGGVVQPGRSLRLSCVASGFPFNNYWMTWIRQAPGKGLEWIASITITGGTTYYPGSVKGRFTISRDNSKSTLYLQMNSLRAEDTAVYYCTRERYSTEYYPYYWYFDFWGQGTMVTVSS
VL: DIQMTQSPSSLSASVGDRVTITCRTSQDIGNYLRWFQQKPGKSPKLMIYDAINLAAGVPSRFSGSGSGTDYTLTISSLQPEDVATYYCLQHNEYPYTFGQGTKLEIK
